We go through two molecules from US9540428B2, “Extracellular matrix heparin-binding domains” (EPFL-TTO, priority 2012, dated 2017).

This data set can be described thus: Incorporation of fragments into 2% TG-PEG gel. Conditions: 5 μM fragment, after 2 washes with PBS.

Turning to “FN III9*-10-TNC III1-5: fusion protein of fibronectin integrin binding domain FN III9*-10 and TNC III1-5 with TG substrate, SEQ ID NO:5”, the “fragments bound into gels” value was found to be 96%.

B1: TNC III1-5: recombinant tenascin C fibronectin type III repeats 1-5 (E622 to A1074) with transglutaminase substrate NQEQVSPL and 6×His tag, SEQ ID NO:1 (protein)
chain: METDTLLLWVLLLWVPGSTGDAAQPAIEGRNQEQVSPLGGSEVSPPKDLVVTEVTEETVNLAWDNEMRVTEYLVVYTPTHEGGLEMQFRVPGDQTSTIIQELEPGVEYFIRVFAILENKKSIPVSARVATYLPAPEGLKFKSIKETSVEVEWDPLDIAFETWEIIFRNMNKEDEGEITKSLRRPETSYRQTGLAPGQEYEISLHIVKNNTRGPGLKRVTTTRLDAPSQIEVKDVTDTTALITWFKPLAEIDGIELTYGIKDVPGDRTTIDLTEDENQYSIGNLKPDTEYEVSLISRRGDMSSNPAKETFTTGLDAPRNLRRVSQTDNSITLEWRNGKAAIDSYRIKYAPISGGDHAEVDVPKSQQATTKTTLTGLRPGTEYGIGVSAVKEDKESNPATINAATELDTPKDLQVSETAETSLTLLWKTPLAKFDRYRLNYSLPTGQWVGVQLPRNTTSYVLRGLEPGQEYNVLLTAEKGRHKSKPARVKASTEQAGGGSHHHHHH
modifications: Tenascin III signal sequence with polyhistidine tag
Turning to B1, the “fragments bound into gels” value is on record as 98%.
